In article doi:10.1101/2024.02.28.582571:
Results are given in words; binding and its absence hold for the method and conditions named. For part of these data: In cells and extracts the contact can be indirect. Some binding calls cover weakened binding; strength is not graded here.

Protein sequences, listed by entry. Tags and fused reporters are not part of them.
UniProt A0ABX6F2N8: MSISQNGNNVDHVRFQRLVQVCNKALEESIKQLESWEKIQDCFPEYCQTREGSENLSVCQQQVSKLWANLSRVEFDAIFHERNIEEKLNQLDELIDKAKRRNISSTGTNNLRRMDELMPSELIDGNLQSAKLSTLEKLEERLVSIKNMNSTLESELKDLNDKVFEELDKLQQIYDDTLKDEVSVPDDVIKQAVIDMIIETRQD
UniProt A0ABX6ES48: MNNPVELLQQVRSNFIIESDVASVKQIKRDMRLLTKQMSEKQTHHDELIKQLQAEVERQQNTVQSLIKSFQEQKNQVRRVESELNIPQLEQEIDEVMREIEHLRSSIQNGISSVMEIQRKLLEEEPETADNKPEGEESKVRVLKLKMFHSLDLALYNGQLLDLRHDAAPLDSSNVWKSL

Legend:
[1] = biological target: Dsn1-6His-3M3DK (K. marxianus Dsn1 tagged at the endogenous locus) (Kluyveromyces marxianus); experiment: immunogold labelling with negative stain electron microscopy; kinetochores purified via Dsn1-6His-3M3DK from strains with or without Ndc80-V5, incubated with α-V5 antibody on 10 nm gold (1:100, 30 min, room temperature), negative stain
[2] = biological target: Dsn1-6His-3M3DK (K. marxianus Dsn1 tagged at the endogenous locus) (Kluyveromyces marxianus); experiment: co-IP; Dsn1-6His-3M3DK captured from lysate of benomyl-treated K. marxianus on α-M3DK Dynabeads (90 min, 4 °C), washed in Buffer H (25 mM HEPES pH 8.0, 150 mM KCl, 2 mM MgCl2, 0.1% NP-40, 15% glycerol), eluted with 3xM3DK peptide; immunoblot with α-Nnf1, α-Spc24, α-Okp1

Substance	binding [1]	binding [2]
Ndc80-6xHis-3xV5 (K. marxianus Ndc80 tagged at the endogenous locus) (from UniProt A0ABX6F1V2 1-676)	binds	
Nnf1 (K. marxianus) (from UniProt A0ABX6F2N8 1-203)		binds
Spc24 (K. marxianus) (from UniProt A0ABX6ES48 1-179)		binds
